Where a protein sequence is shown, tags need not be part of it.

In data set [1] the target is T1, CmtR (UniProt P9WMI9).
T1 sequence (looked up): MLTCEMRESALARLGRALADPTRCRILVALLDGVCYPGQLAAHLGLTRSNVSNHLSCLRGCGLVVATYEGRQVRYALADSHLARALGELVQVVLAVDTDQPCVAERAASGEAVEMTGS
The data set can be described thus: EMSA. The note with it: recombinant protein, residues 1-118, probe letters rebuilt from the primers and the genome. On the technique in general: Mobility shift assays separate free from complexed probe on a gel.

In data set [2] the target is T2, Zur (UniProt P9WN85).
T2 sequence (looked up): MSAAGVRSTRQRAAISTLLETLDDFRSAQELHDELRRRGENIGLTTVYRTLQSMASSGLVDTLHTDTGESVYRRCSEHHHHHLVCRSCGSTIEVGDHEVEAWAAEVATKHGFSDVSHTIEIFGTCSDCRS
Description: EMSA. The note with it: recombinant protein, residues 1-130, protein details: His-SUMO (pET28a-Sumo), cleaved by ULP1, probe letters rebuilt from the primers and the genome.

On to “GATTCCCGCATCTCACACGTCAGCATAGATCAAATAGTACACCATATACTGGTATAACAGCAAGAGCTGAATTGTACATCCATAGCAGATATGATCGGCGCGCGTCACAAGCTTCCGGCCGCAGAGCCGCCAACTCACGATATCGTTAACCGATATCCCGAGCCGATAGCTGGCGGGCTCGGGTGGTGGCCAGCGGCGCTGCGACGAAAGGTGTGACCGTCATGAAACAGACACCACCGGCGGCCGTCGGCCGTCGTCACCTGCTCGAGATCTCAGCATCCGCAGCCGGTGTGATCGCGCTTTCGGCGTGTAGTGGGTCGCCGCCCGAGCCCGGCAAAGGCCGGCCCGACACAACCCCGGAACAGGAAGTCCC (double strand) [cmtRp]”, for which the binding result in data set [1] (10 mM DTT), in data set [1] (CmtR 1.6-8.0 uM) and in data set [1] (H2O2 + DTT (inhibition reversed)) was “binds” in each case.
With “ACTGGCTAAATCCGTTGCCGCTGCCGCGATAACCTCTGGCGCCGCAATCACAAACGACATCTGACACCTCCCAATACGCATGACCGCTCTGTCATGCCGACCCGGGGAACGTCACCAGCAAAAATCGGCGGGCTACAGAATAACTCCGGCCCGGGAAAGGGATTTGGTATTTCCCAAAATATCTCCCACATTTATGCGGTCGGCGCGTCGGCCGACGGGAGCTGGCAGCACCCGTGGGCCGGCGCCGAGCGTTCGCTGGTGTCCGGCTGGGACTTGCATTGCGGCGCGCCGTGGTGTGGAATAGTGGTAATGAAAATCATGTTCATCAGTCCTCTGTGGTGTTTACGGCT (double strand) [rv0280p]”, the binding result in data set [2] (+ MabR (no effect)) and in data set [2] (Zur 1 uM) was “binds” throughout.

Source of the values: publication PMC7863910, “A novel stress-inducible CmtR-ESX3-Zn^2+ regulatory pathway essential for survival of Mycobacterium bovis under oxidative stress” (The Journal of Biological Chemistry, 2020).
